Reference: patent US9708297B2, “CGRP receptor antagonists” (Eli Lilly and Company, priority 2015, dated 2017)
Some entries share one result that the patent states for a list of compounds.

Protein sequences, listed by entry. Tags and fused reporters are not part of them. Residues count along the entry.
UniProt O60894, 27-148: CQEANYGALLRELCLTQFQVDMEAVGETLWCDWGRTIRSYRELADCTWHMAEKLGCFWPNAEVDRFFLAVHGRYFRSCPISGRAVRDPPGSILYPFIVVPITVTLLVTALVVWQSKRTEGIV
UniProt Q16602, 23-461: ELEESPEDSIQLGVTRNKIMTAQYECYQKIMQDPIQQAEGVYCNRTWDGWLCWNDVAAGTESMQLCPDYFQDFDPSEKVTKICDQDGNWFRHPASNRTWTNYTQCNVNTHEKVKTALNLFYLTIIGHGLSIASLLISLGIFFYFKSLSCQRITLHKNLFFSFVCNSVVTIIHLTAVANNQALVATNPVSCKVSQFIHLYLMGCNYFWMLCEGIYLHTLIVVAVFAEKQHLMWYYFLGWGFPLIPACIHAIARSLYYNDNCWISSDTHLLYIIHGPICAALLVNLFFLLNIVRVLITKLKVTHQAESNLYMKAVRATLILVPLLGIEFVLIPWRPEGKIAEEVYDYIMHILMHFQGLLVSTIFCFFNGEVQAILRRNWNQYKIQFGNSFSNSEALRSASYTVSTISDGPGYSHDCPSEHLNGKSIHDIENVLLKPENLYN

Biological target: T1, hCGRP (human calcitonin gene-related peptide) receptor (Homo sapiens, UniProt O60894+Q16602)
T1 construct: SK-N-MC neuroblastoma cells (ATCC® HTB-10™) that endogenously express the hCGRP receptor; host or cells: SK-N-MC neuroblastoma cells
Assay: Inhibition of cAMP production by CGRP receptor antagonists (HTRF) in SK-N-MC cells
Format: cell-based
Settings: conclusion in words from Table 3
Protocol: The hCGRP (human calcitonin gene-related peptide) receptor is functionally coupled to the Gas proteins. Stimulation of hCGRP results in an increased synthesis of intracellular cAMP and can be blocked by the addition of receptor antagonists. Receptor activity is thus a reflection of the amount of cAMP present within cells which can be detected using standard in vitro technology.
Cultured SK-N-MC neuroblastoma cells (ATCC® HTB-10™) that endogenously express the hCGRP receptor are grown in Eagle's Minimum essential medium (HYCLONE™) supplemented with 10% heat-inactivated Fetal bovine serum (FBS; GIBCO®), Non-Essential Amino Acids (GIBCO®), 1 mM sodium pyruvate, 2 mM L-glutamine, 100 U/mL of penicillin, and 10 μg/mL of streptomycin to about 70% confluency. After providing fresh medium, the cells are incubated at 37° C. overnight. On the day of the assay, cells are detached using ACCUTASE® (MP Biomedicals), resuspended in assay buffer [Hank's Balanced Salt Solution/Dulbecco's phosphate-buffered saline with […] each of CaCl2 and MgCl2 mixed 1:2, 3.3 mM 4-(2-hydroxyethyl)-1-piperazineethanesulfonic acid, 0.03% bovine serum albumin, and 0.5 mM 1-methyl-3-isobutylxanthine (as inhibitor of […])], and seeded 3-5K/well into 384-well, poly-D-lysine coated white plates (BD Biosciences).
For dose-response studies, compounds are serially diluted 1:3 in dimethyl sulfoxide and then 1:10 into assay buffer. Human CGRP (0.8 nM; Bachem) as a receptor-specific agonist for the hCGRP receptor is mixed with diluted compound and added to the cells as the challenge stimulant at their EC80 concentrations.
The amount of intracellular cAMP is quantitated using HTRF technology (Cisbio) as per vendor instructions. Briefly, cAMP-d2 conjugate and anti-cAMP-cryptate conjugate in lysis buffer are incubated with the treated cells at RT for 90 min. The HTRF signal is immediately detected using an ENVISION® plate reader (Perkin-Elmer) to calculate the ratio of fluorescence at […]. The raw data are converted to cAMP amount (pmole/well) using a cAMP standard curve generated for each experiment. Relative EC50 values are calculated from the top-bottom range of the concentration response curve using a four-parameter logistic curve fitting program (ACTIVITYBASE® v5.3.1.22 or GENEDATA SCREENER® v12.0.4), and Kb values are estimated as agonist-corrected IC50 values using the equation: Kb=(IC50)/[1+([Agonist]/EC50)]. Estimated Kb values are reported as mean values±SEM, averaged from the number of runs (n).
Following the procedure essentially as described above, the compounds of Examples 1-12 have a Kb measured at human CGRP as shown in Table 3.

| SMILES | antagonism of the human CGRP receptor in vitro |
| --- | --- |
| Cc1cc(CNC(=O)c2ccc([C@@H](C)[C@]3(C)CC(=O)NC3=O)cc2)cc(C2CC2)n1 [Example 6, N-[(2-cyclopropyl-6-methyl-4-pyridyl)methyl]-4-[(1R)-1-[(3S)-3-methyl-2,5-dioxo-pyrrolidin-3-yl]ethyl]benzamide] | antagonists of the human CGRP receptor in vitro |
| Cc1cc(CNC(=O)c2ccc([C@@H](C)[C@]3(C)CC(=O)NC3=O)cn2)cc(C)n1 [Example 8, N-[(2,6-dimethyl-4-pyridyl)methyl]-5-[(1R)-1-[(3S)-3-methyl-2,5-dioxo-pyrrolidin-3-yl]ethyl]pyridine-2-carboxamide] | antagonists of the human CGRP receptor in vitro |
| Cc1cc(CNC(=O)c2ccc([C@@H](C)[C@]3(C)CC(=O)NC3=O)cc2)cc(C#N)n1 [Example 4, N-[(2-cyano-6-methyl-4-pyridyl)methyl]-4-[(1R)-1-[(3S)-3-methyl-2,5-dioxo-pyrrolidin-3-yl]ethyl]benzamide] | antagonists of the human CGRP receptor in vitro |
| Cc1cc(C)nc(CNC(=O)c2ccc([C@@H](C)[C@]3(C)CC(=O)NC3=O)cc2)c1 [Example 2, N-[(4,6-dimethyl-2-pyridyl)methyl]-4-[(l R)-1-[(3S)-3-methyl-2,5-dioxo-pyrrolidin-3-yl]ethyl]benzamide] | antagonists of the human CGRP receptor in vitro |
| Cc1cc(CNC(=O)c2ccc([C@@H](C)[C@]3(C)CC(=O)NC3=O)cc2)cc(C2CCCC2)n1 [Example 12, N-[(2-cyclopentyl-6-methylpyridin-4-yl)methyl]-4-{(1R)-1-[(3S)-3-methyl-2,5-dioxopyrrolidin-3-yl]ethyl}benzamide] | antagonists of the human CGRP receptor in vitro |
| Cc1cc(CNC(=O)c2ccc([C@@H](C)[C@]3(C)CC(=O)NC3=O)cc2)nc(C2CC2)c1 [Example 7, N-[(6-cyclopropyl-4-methyl-2-pyridyl)methyl]-4-[(1R)-1-[(3S)-3-methyl-2,5-dioxo-pyrrolidin-3-yl]ethyl]benzamide] | antagonists of the human CGRP receptor in vitro |
| Cc1cc(CNC(=O)c2ccc([C@@H](C)[C@]3(C)CC(=O)NC3=O)cc2)cc(C)n1 [Example 1, N-[(2,6-dimethylpyridin-4-yl)methyl]-4-{(1R)-1-[(3S)-3-methyl-2,5-dioxopyrrolidin-3-yl]ethyl}benzamide] | antagonists of the human CGRP receptor in vitro |
| Cc1cc(CNC(=O)c2ccc([C@@H](C)[C@]3(C)CC(=O)NC3=O)cc2)cc(C(C)C)n1 [Example 5, N-[(2-isopropyl-6-methyl-4-pyridyl)methyl]-4-[(R)-1-[(3S)-3-methyl-2,5-dioxo-pyrrolidin-3-yl]ethyl]benzamide] | antagonists of the human CGRP receptor in vitro |
| Cc1cc(C#N)nc(CNC(=O)c2ccc([C@@H](C)[C@]3(C)CC(=O)NC3=O)cc2)c1 [Example 3, N-[(6-cyano-4-methyl-2-pyridyl)methyl]-4-[(1R)-1-[(3S)-3-methyl-2,5-dioxo-pyrrolidin-3-yl]ethyl]benzamide] | antagonists of the human CGRP receptor in vitro |
| CCc1cc(CNC(=O)c2ccc([C@@H](C)[C@]3(C)CC(=O)NC3=O)cc2)cc(C)n1 [Example 10, N-[(2-ethyl-6-methylpyridin-4-yl)methyl]-4-{(1R)-1-[(3S)-3-methyl-2,5-dioxopyrrolidin-3-yl]ethyl}benzamide] | antagonists of the human CGRP receptor in vitro |
| Cc1cc(CNC(=O)c2ccc([C@@H](C)[C@]3(C)CC(=O)NC3=O)cn2)cc(C2CC2)n1 [Example 9, N-[(2-cyclopropyl-6-methyl-4-pyridyl)methyl]-5-[(1R)-1-[(3S)-3-methyl-2,5-dioxo-pyrrolidin-3-yl]ethyl]pyridine-2-carboxamide] | antagonists of the human CGRP receptor in vitro |
